The values below come from the supplement of paper PMC4604168 (melanoma cell lines).

Some of the results follow. Many values rest on one well or one pass, so single values are uncertain.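 Imaging used 1,536-well plates; nuclei positive for cleaved PARP by antibody were divided by total DNA-stained nuclei to yield the apoptosis fraction. Doses for screening kept most cells viable, and cell lines differ markedly in resting and induced cleaved-PARP levels.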

Test systems include WM115; WM1716; WM1745; WM3526; WM3619; WM451Lu.
Test in all cases: cleaved PARP positive nuclei fraction relative to DMSO control; melanoma cells; higher = more apoptosis
Common to all, as to conditions: library dose: low library concentration; 72 h

For the molecule `CS(=O)(=O)c1ccc(C(=O)Nc2ccc(Cl)c(-c3ccccn3)c2)c(Cl)c1` [vismodegib] + C[C@@H](Oc1cc(-c2cnn(C3CCNCC3)c2)cnc1N)c1c(Cl)ccc(F)c1Cl [Crizotinib] (first compound 1 µM, partner dose 0.2 µM), the “cleaved PARP positive nuclei fraction” value in the experiment with WM115 was found to be 108%; in the experiment with WM1716, 186%; in the experiment with WM1745, 86.9%; in the experiment on WM3526 it was 36.7%; with WM3619 it was 87.2%; with WM451Lu it was 95.8%.

For the molecule `COc1ccc(C2=N[C@@H](c3ccc(Cl)cc3)[C@@H](c3ccc(Cl)cc3)N2C(=O)N2CCNC(=O)C2)c(OC(C)C)c1` [Nutlin-3] + Nc1ccn([C@@H]2O[C@H](CO)[C@@H](O)C2(F)F)c(=O)n1 [gemcitabine] (first compound 0.1 µM, partner dose 0.0004 µM), the “cleaved PARP positive nuclei fraction” value in the experiment on WM115 was found to be 45.4%; in the experiment on WM1716, 105%; in the experiment with WM1745 it was 118%; in the experiment on WM3526, 30.5%; with WM3619, 135%; in the experiment on WM451Lu, 79.1%.

`CC1(C)CCC(c2ccc(Cl)cc2)=C(CN2CCN(c3ccc(C(=O)NS(=O)(=O)c4ccc(N[C@H](CCN5CCOCC5)CSc5ccccc5)c(S(=O)(=O)C(F)(F)F)c4)cc3)CC2)C1` + C[C@]1(O)C[C@@H](c2nc(-c3ccc4ccc(-c5ccccc5)nc4c3)c3c(N)nccn32)C1 [OSI906] (first compound 0.4 µM, partner dose 0.4 µM): the “cleaved PARP positive nuclei fraction” value in the experiment on WM115 was 365%; in the experiment with WM1716, 80.7%; in the experiment on WM1745, 1440%; with WM3526 it was 30.3%; in the experiment with WM3619, 103%; with WM451Lu it was 86%.

In the case of `CC1(C)CCC(c2ccc(Cl)cc2)=C(CN2CCN(c3ccc(C(=O)NS(=O)(=O)c4ccc(N[C@H](CCN5CCOCC5)CSc5ccccc5)c(S(=O)(=O)C(F)(F)F)c4)cc3)CC2)C1` + CN1CCN(c2ccc3nc(-c4c(N)c5c(F)cccc5[nH]c4=O)[nH]c3c2)CC1 [Dovitinib] (first compound 0.4 µM, partner dose 0.1 µM), the “cleaved PARP positive nuclei fraction” value came to 223% in the experiment on WM115; 343% with WM1716; 1040% in the experiment with WM1745; 100% in the experiment on WM3526; 102% in the experiment on WM3619; 133% in the experiment with WM451Lu.

Regarding `CC1(C)CCC(c2ccc(Cl)cc2)=C(CN2CCN(c3ccc(C(=O)NS(=O)(=O)c4ccc(N[C@H](CCN5CCOCC5)CSc5ccccc5)c(S(=O)(=O)C(F)(F)F)c4)cc3)CC2)C1` + NC(=O)Nc1cc(-c2cccc(F)c2)sc1C(=O)N[C@H]1CCCNC1 [AZD7762] (first compound 0.4 µM, partner dose 0.02 µM), the “cleaved PARP positive nuclei fraction” value with WM115 worked out at 440%; with WM1716, 305%; in the experiment on WM1745, 541%; in the experiment on WM3526 it was 81.5%; with WM3619, 380%; in the experiment on WM451Lu, 159%.

Regarding `CN(c1ncccc1CNc1nc(Nc2ccc3c(c2)CC(=O)N3)ncc1C(F)(F)F)S(C)(=O)=O` + C=CCNC1=C2C[C@@H](C)C[C@H](OC)[C@H](O)[C@@H](C)/C=C(\C)[C@H](OC(N)=O)[C@@H](OC)/C=C\C=C(/C)C(=O)NC(=CC1=O)C2=O [Tanespimycin] (first compound 0.08 µM, partner dose 0.002 µM), the “cleaved PARP positive nuclei fraction” value came out at 193% in the experiment with WM115; 81% in the experiment on WM1716; 110% in the experiment on WM1745; 36.3% with WM3526; 94.4% in the experiment on WM3619; 104% in the experiment on WM451Lu.

For the molecule `COc1ccc(C2=N[C@@H](c3ccc(Cl)cc3)[C@@H](c3ccc(Cl)cc3)N2C(=O)N2CCNC(=O)C2)c(OC(C)C)c1` [Nutlin-3] + CN(c1ncccc1CNc1nc(Nc2ccc3c(c2)CC(=O)N3)ncc1C(F)(F)F)S(C)(=O)=O [PF562271] (first compound 0.1 µM, partner dose 0.08 µM), the “cleaved PARP positive nuclei fraction” value with WM115 came to 148%; with WM1716, 154%; in the experiment with WM1745, 91.2%; with WM3526 it was 42.6%; in the experiment with WM3619, 177%; with WM451Lu it was 131%.

`CCCCCCCCc1ccc(CCC(N)(CO)CO)cc1` [fingolimod] + COc1cc2ncnc(Nc3ccc(Oc4ccccc4)cc3)c2cc1OC [SrcI1] (first compound 2 µM, partner dose 2 µM): the “cleaved PARP positive nuclei fraction” value in the experiment with WM115 worked out at 98.8%; in the experiment on WM1716, 168%; with WM1745 it was 139%; in the experiment with WM3526 it was 83.4%; with WM3619, 104%; in the experiment on WM451Lu, 66.9%.

`CN(c1ncccc1CNc1nc(Nc2ccc3c(c2)CC(=O)N3)ncc1C(F)(F)F)S(C)(=O)=O` + Cc1cc([N+](=O)[O-])ccc1NS(=O)(=O)c1cc(Cl)ccc1Cl [FH535] (first compound 0.08 µM, partner dose 1 µM): the “cleaved PARP positive nuclei fraction” value with WM115 was 130%; in the experiment on WM1716, 401%; in the experiment with WM1745, 115%; with WM3526, 183%; in the experiment on WM3619, 98%; in the experiment on WM451Lu, 47.7%.

Take `COc1ccc(C2=N[C@@H](c3ccc(Cl)cc3)[C@@H](c3ccc(Cl)cc3)N2C(=O)N2CCNC(=O)C2)c(OC(C)C)c1` [Nutlin-3] + CO[C@H]1C[C@@H]2CC[C@@H](C)[C@@](O)(O2)C(=O)C(=O)N2CCCC[C@H]2C(=O)O[C@H]([C@H](C)C[C@@H]2CC[C@@H](OCCO)[C@H](OC)C2)CC(=O)[C@H](C)/C=C(\C)[C@@H](O)[C@@H](OC)C(=O)[C@H](C)C[C@H](C)/C=C/C=C/C=C/1C [everolimus] (first compound 0.1 µM, partner dose 0.02 µM): the “cleaved PARP positive nuclei fraction” value was found to be 169% in the experiment with WM115; 88.1% in the experiment with WM1716; 121% in the experiment with WM1745; 48.7% with WM3526; 154% with WM3619; 146% with WM451Lu.

On to `CCN(CC)CCNC(=O)c1c(C)[nH]c(/C=C2\C(=O)Nc3ccc(F)cc32)c1C` [sunitinib] + CN(C)S(=O)(=O)c1ccc2c(c1)/C(=C/c1cc3c([nH]1)CCCC3)C(=O)N2 [SU6656] (first compound 0.4 µM, partner dose 0.4 µM), for which the “cleaved PARP positive nuclei fraction” value with WM115 is 145%; with WM1716, 39.4%; with WM1745 it was 110%; in the experiment on WM3526, 58.4%; in the experiment with WM3619, 83.8%; in the experiment on WM451Lu it was 65.1%.

With `C[C@@H](N)c1ccc(C(=O)Nc2ccnc3[nH]ccc23)cc1` + Cn1sc(=O)n(Cc2ccccc2)c1=O [TDZD-8] (first compound 0.4 µM, partner dose 0.4 µM), the “cleaved PARP positive nuclei fraction” value with WM115 amounted to 190%; in the experiment with WM1716, 362%; with WM1745 it was 2680%; in the experiment on WM3526 it was 55%; with WM3619 it was 97.3%; in the experiment with WM451Lu, 35.9%.
